This note sets out measurements from the supplement of paper PMC6143611.

For assay [1], the system named is Danio rerio larva rod photoreceptor outer segment. Briefly: rod outer segment growth distance Dg, difference from same-week DMSO control mean; higher = more outer segment growth. The note with it: 20 µM; treatment time: 4 days (6-10 dpf).
Assay [2] shares this test system. Briefly: rod outer segment shedding distance Ds, difference from same-week DMSO control mean; higher = less outer segment shedding. The conditions noted are these: 20 µM; treatment time: 4 days (6-10 dpf).

SMILES strings stand for the structures. Where a name gives a salt, the structure may show the parent alone. ± gives the uncertainty stated by the source. The list shows a part of the results. Part of the spread comes from offsets between plates or batches.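 At 6 dpf, larvae had a heat-shock-induced fluorescent stripe placed in rod outer segments; shedding distance, from stripe to outer segment tip, was measured in confocal stacks, roughly three fish per compound. Controls received 0.2% DMSO vehicle; compounds were flagged for ≥20% change versus same-week control and p < 0.001 (Dunnett test, mixed-effects models).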

In the case of `NC[C@H](O)c1ccc(O)c(O)c1` [Noradrenaline bitartrate monohydrate], the “rod outer segment growth distance Dg” value in assay [1] was -0.27 ± 0.18 um. Also, the “rod outer segment shedding distance Ds” value in assay [2] was -0.14 ± 0.1 um.

Consider `Cc1ccc(C(=O)Nc2cccc(C(F)(F)F)c2)cc1Nc1nc(-c2cccnc2)nc2c1cnn2C`, for which the “rod outer segment growth distance Dg” value in assay [1] came to 0.43 ± 0.25 um. Moreover, the “rod outer segment shedding distance Ds” value in assay [2] was found to be 0.84 ± 0.3 um.

`Cc1cccc(C)c1OCC(=O)N[C@@H](Cc1ccccc1)[C@@H](O)C[C@H](Cc1ccccc1)NC(=O)[C@H](C(C)C)N1CCCNC1=O` [Lopinavir]: in assay [1], the “rod outer segment growth distance Dg” value was -0.49 ± 0.21 um. Further, in assay [2], the “rod outer segment shedding distance Ds” value is -0.8 ± 0.25 um.

As to `C=C[C@H]1CN2CC[C@H]1C[C@H]2[C@H](O)c1ccnc2ccc(OC)cc12` [Quinine HCl Dihydrate], in assay [1], the “rod outer segment growth distance Dg” value is 0.66 ± 0.29 um. Further, the “rod outer segment shedding distance Ds” value in assay [2] was determined as 0.73 ± 0.3 um.

Turning to `Cc1cccc(-c2[nH]c(C(C)(C)C)nc2-c2ccc3nccnc3c2)n1`, the “rod outer segment growth distance Dg” value in assay [1] is -1.31 ± 0.25 um. The “rod outer segment shedding distance Ds” value in assay [2] stood at 1.31 ± 0.25 um.

With `CC(C)[C@H](O)C(=O)N[C@@H](C)C(=O)N[C@@H]1C(=O)N(C)CCc2ccccc21`, the “rod outer segment growth distance Dg” value in assay [1] came out at 0.44 ± 0.19 um. Further, the “rod outer segment shedding distance Ds” value in assay [2] came out at 0.24 ± 0.16 um.

Regarding `O=P(O)(O)C(O)(Cn1ccnc1)P(=O)(O)O` [Zoledronic Acid], the “rod outer segment growth distance Dg” value in assay [1] was 0.57 ± 0.14 um. In addition, the “rod outer segment shedding distance Ds” value in assay [2] was -0.9 ± 0.15 um.

As for `CNC(=O)c1ccc(-c2cnc3ncc(Cc4ccc5ncccc5c4)n3n2)cc1F`, the “rod outer segment growth distance Dg” value in assay [1] is -0.78 ± 0.18 um. Moreover, in assay [2], the “rod outer segment shedding distance Ds” value is -0.35 ± 0.12 um.

Take `CN(C)c1ccc(C(=O)NCCCCCCC(=O)NO)cc1`: in assay [1], the “rod outer segment growth distance Dg” value is 0.13 ± 0.14 um. Also, in assay [2], the “rod outer segment shedding distance Ds” value amounted to 0.04 ± 0.13 um.

As to `Cc1cn([C@H]2C[C@H](N=[N+]=[N-])[C@@H](CO)O2)c(=O)[nH]c1=O` [Zidovudine], the “rod outer segment growth distance Dg” value in assay [1] turned out to be 0.62 ± 0.28 um. In addition, the “rod outer segment shedding distance Ds” value in assay [2] is -0.73 ± 0.16 um.

For the compound `N#Cc1c(O)c2c(-c3ccc(-c4ccccc4O)cc3)csc2[nH]c1=O`, the “rod outer segment growth distance Dg” value in assay [1] amounted to 0.07 ± 0.16 um. The “rod outer segment shedding distance Ds” value in assay [2] was -0.13 ± 0.15 um.

Take `CC(C)[C@@H](C)/C=C/[C@@H](C)[C@H]1CC[C@H]2C3=CC=C4C[C@@H](O)CC[C@]4(C)[C@H]3CC[C@]12C` [Ergosterol]: in assay [1], the “rod outer segment growth distance Dg” value is 0.34 ± 0.34 um. For the same compound, the “rod outer segment shedding distance Ds” value in assay [2] is -0.06 ± 0.31 um.

For the compound `CCN1CCN(c2cc3c(cc2F)c(=O)c(C(=O)O)cn3C2CC2)CC1` [Enrofloxacin], in assay [1], the “rod outer segment growth distance Dg” value is 1.38 ± 0.13 um. Moreover, the “rod outer segment shedding distance Ds” value in assay [2] worked out at 0.08 ± 0.12 um.

For `C[C@]12C=CC(=O)N[C@@H]1CC[C@@H]1[C@@H]2CC[C@]2(C)[C@@H](C(=O)Nc3cc(C(F)(F)F)ccc3C(F)(F)F)CC[C@@H]12` [Dutasteride], the “rod outer segment growth distance Dg” value in assay [1] is -0.45 ± 0.17 um. Also, in assay [2], the “rod outer segment shedding distance Ds” value is -2.04 ± 0.19 um.

Consider `O=C1c2ccccc2C(=O)C1c1ccccc1` [Phenindione], for which the “rod outer segment growth distance Dg” value in assay [1] is 0.33 ± 0.24 um. The “rod outer segment shedding distance Ds” value in assay [2] was -0.49 ± 0.28 um.

Take `CS(=O)(=O)c1ccc(C2=C(c3ccccc3)C(=O)OC2)cc1` [Rofecoxib]: in assay [1], the “rod outer segment growth distance Dg” value came to 1.07 ± 0.15 um. Also, in assay [2], the “rod outer segment shedding distance Ds” value turned out to be 0.13 ± 0.14 um.

In the case of `Oc1ncnc2[nH]ncc12` [Allopurinol], the “rod outer segment growth distance Dg” value in assay [1] is -0.44 ± 0.21 um. Besides, in assay [2], the “rod outer segment shedding distance Ds” value is 0.45 ± 0.17 um.

With `CNC(CC(=O)O)C(=O)O` [NMDA (N-Methyl-D-aspartic acid)], the “rod outer segment growth distance Dg” value in assay [1] was -0.85 ± 0.17 um. In addition, the “rod outer segment shedding distance Ds” value in assay [2] came out at 0.01 ± 0.13 um.

As for `CC1=C(C(=O)O)N2C(=O)[C@@H](NC(=O)[C@H](N)c3ccccc3)[C@H]2SC1` [Cephalexin], in assay [1], the “rod outer segment growth distance Dg” value was -0.74 ± 0.24 um. Moreover, in assay [2], the “rod outer segment shedding distance Ds” value was 0.53 ± 0.19 um.

On to `Cc1ccc(=O)n(-c2ccccc2)c1` [Pirfenidone], for which, in assay [1], the “rod outer segment growth distance Dg” value is -1.37 ± 0.15 um. Also, the “rod outer segment shedding distance Ds” value in assay [2] is -0.11 ± 0.12 um.

As to `COc1ccc(-n2nc(C(N)=O)c3c2C(=O)N(c2ccc(N4CCCCC4=O)cc2)CC3)cc1` [Apixaban], in assay [1], the “rod outer segment growth distance Dg” value was determined as 0.07 ± 0.2 um. Besides, in assay [2], the “rod outer segment shedding distance Ds” value is -0.08 ± 0.17 um.

For the compound `S=C=Nc1cccc(NC(=S)NCCCCNC(=S)Nc2cccc(N=C=S)c2)c1`, the “rod outer segment growth distance Dg” value in assay [1] was determined as 0.2 ± 0.16 um. For the same compound, the “rod outer segment shedding distance Ds” value in assay [2] was -0.06 ± 0.12 um.

In the case of `CC1(C)CCC(c2ccc(Cl)cc2)=C(CN2CCN(c3ccc(C(=O)NS(=O)(=O)c4ccc(N[C@H](CCN5CCOCC5)CSc5ccccc5)c(S(=O)(=O)C(F)(F)F)c4)cc3)CC2)C1` [ABT-263 (Navitoclax)], the “rod outer segment growth distance Dg” value in assay [1] came out at 0.48 ± 0.25 um. Further, the “rod outer segment shedding distance Ds” value in assay [2] is -1.79 ± 0.32 um.

In the case of `N#CC(=C(/N)Sc1ccccc1N)/C(C#N)=C(\N)Sc1ccccc1N`, the “rod outer segment growth distance Dg” value in assay [1] is -1.79 ± 0.25 um. Also, in assay [2], the “rod outer segment shedding distance Ds” value came to 0.12 ± 0.27 um.

For the compound `O=S(=O)(c1ccccc1)c1cnc2c(N3CCNCC3)cccc2c1`, the “rod outer segment growth distance Dg” value in assay [1] is -0.73 ± 0.25 um. Also, the “rod outer segment shedding distance Ds” value in assay [2] is 0.43 ± 0.16 um.

Turning to `O=c1[nH]cnc2c1ncn2[C@H]1CC[C@@H](CO)O1` [Didanosine], the “rod outer segment growth distance Dg” value in assay [1] worked out at 0.89 ± 0.29 um. Further, in assay [2], the “rod outer segment shedding distance Ds” value was -0.19 ± 0.11 um.

For `O=S(=O)(O)CCS` [Mesna], the “rod outer segment growth distance Dg” value in assay [1] is -0.54 ± 0.22 um. In assay [2], the “rod outer segment shedding distance Ds” value was -0.08 ± 0.18 um.

As for `CC(C)c1nc(CN(C)C(=O)N[C@H](C(=O)N[C@@H](Cc2ccccc2)C[C@H](O)[C@H](Cc2ccccc2)NC(=O)OCc2cncs2)C(C)C)cs1` [Ritonavir], in assay [1], the “rod outer segment growth distance Dg” value worked out at 0.49 ± 0.17 um. The “rod outer segment shedding distance Ds” value in assay [2] is -2.07 ± 0.25 um.

`Nc1nc(N)c2nc(-c3cccc(O)c3)cnc2n1`: the “rod outer segment growth distance Dg” value in assay [1] was -0.17 ± 0.19 um. Further, the “rod outer segment shedding distance Ds” value in assay [2] is -0.73 ± 0.11 um.

On to `CC(C)N(C[C@H]1O[C@@H](n2cnc3c(N)ncnc32)[C@H](O)[C@@H]1O)[C@H]1C[C@@H](CCc2nc3cc(C(C)(C)C)ccc3[nH]2)C1`, for which the “rod outer segment growth distance Dg” value in assay [1] was -1.07 ± 0.18 um. Further, the “rod outer segment shedding distance Ds” value in assay [2] was 0.03 ± 0.15 um.

With `C[C@H](CCC(=O)O)[C@H]1CC[C@H]2[C@@H]3[C@H](O)C[C@@H]4C[C@H](O)CC[C@]4(C)[C@H]3CC[C@]12C` [Chenodeoxycholic Acid], in assay [1], the “rod outer segment growth distance Dg” value is -0.85 ± 0.17 um. The “rod outer segment shedding distance Ds” value in assay [2] is -1.08 ± 0.25 um.

`Cc1cc([C@@H](C)Nc2ccccc2C(=O)O)c2nc(N3CCOCC3)cc(=O)n2c1`: in assay [1], the “rod outer segment growth distance Dg” value was determined as 1.31 ± 0.24 um. Moreover, the “rod outer segment shedding distance Ds” value in assay [2] is -0.13 ± 0.18 um.

For the compound `CO[C@@H](C(=O)N1Cc2[nH]nc(NC(=O)c3ccc(N4CCN(C)CC4)cc3)c2C1)c1ccccc1`, in assay [1], the “rod outer segment growth distance Dg” value is -0.41 ± 0.15 um. Besides, the “rod outer segment shedding distance Ds” value in assay [2] is -0.1 ± 0.21 um.

In the case of `C[C@@H]1C/C=C/C=C/C=C/C=C/[C@H](O[C@@H]2O[C@H](C)[C@@H](O)[C@H](N)[C@@H]2O)C[C@@H]2O[C@](O)(C[C@@H](O)C[C@H]3O[C@@H]3/C=C/C(=O)O1)C[C@H](O)[C@H]2C(=O)O` [Natamycin], the “rod outer segment growth distance Dg” value in assay [1] was -0.4 ± 0.22 um. For the same compound, in assay [2], the “rod outer segment shedding distance Ds” value came to 0.05 ± 0.21 um.
